Experimental data: paper PMC3347520
The exact form of at least one protein or probe is not confirmed. At least one verdict rests on a figure or table, not on a statement of the authors.

Target: HFV integrase (HFV IN) (Human foamy virus) (UniProt P14350)
Test: fluorescence polarization
Details: 7.5 mM Mg2+, 4 nM DNA, 100 nM IN, kinetics; recombinant protein; label: fluorescein on 5' of U5B

Does “ATACAAAATTCCATGACAAT (double strand) [U5-HFV duplex, fluorescein]” bind?
Result: binds
